Assay results published in article PMC7819943, “Rice protein-binding microarrays: a tool to detect cis-acting elements near promoter regions in rice”.
The other results are listed elsewhere or left out.

The sequences below were run against T1, OsSMF1 (Oryza sativa, UniProt Q6ZLB0 1-436) (assay: protein-binding microarray (RPBM); PBS, 2% BSA, 51.3 ng/ul salmon testes DNA, 50 uM zinc acetate, 200 nM TF, 25 C, 1 h; high values mean tight binding). Settings: protein: recombinant; tags: N-terminal polyhistidine and DsRed monomer fusion (pET32a); chain copies: 2; label: CyDye5-dUTP incorporated in the synthesized complementary strand; 3' TTTTT single-stranded linker to array surface; dsDNA, one strand shown.
T1 sequence: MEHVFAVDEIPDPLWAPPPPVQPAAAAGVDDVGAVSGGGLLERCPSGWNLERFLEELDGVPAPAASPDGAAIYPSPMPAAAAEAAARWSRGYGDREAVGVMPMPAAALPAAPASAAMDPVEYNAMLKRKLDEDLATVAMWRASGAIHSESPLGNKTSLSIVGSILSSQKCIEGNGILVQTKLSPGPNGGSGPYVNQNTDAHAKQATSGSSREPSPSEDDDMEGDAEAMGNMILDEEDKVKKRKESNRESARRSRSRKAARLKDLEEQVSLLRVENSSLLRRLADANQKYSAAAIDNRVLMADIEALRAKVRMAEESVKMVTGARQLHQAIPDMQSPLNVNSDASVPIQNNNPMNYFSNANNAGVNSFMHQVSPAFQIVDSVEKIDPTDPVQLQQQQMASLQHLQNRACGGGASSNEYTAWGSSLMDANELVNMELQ
In short: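 Using Ni–NTA, transcription factors fused N-terminally to polyhistidine and DsRed were purified after expression in E. coli BL21-CodonPlus. These were incubated at 200 nM with a blocked, double-stranded custom Agilent array for 1 h at 25 °C in a buffer containing 50 µM zinc acetate, and the array was washed. The binding signal is per-feature fluorescence intensity (arbitrary units) on an Axon 4000B scanner.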
For “ACCAAACTTCCCTCCACGCCTGCTTCGCCCAACTCGTTCTCGGAGTCACCTAGTGCAG”, the binding signal was 4080 fluorescence intensity (a.u.).
“CACTCGCACCCATCTCATCACCGAGTCACCGGCACCGGTCCGGAGTCACCTAGTGCAG” was tested, and the binding signal was 5200 fluorescence intensity (a.u.).
“TAGATCAGGGACATAGTGACATCGTTTGATGGCACTTCTACGGAGTCACCTAGTGCAG” was tested, and the binding signal was 3320 fluorescence intensity (a.u.).
“TTGGCATCAGTCAAAACTAACTAAACCTACTTTATCCATACGGAGTCACCTAGTGCAG” was tested, and the binding signal was 3680 fluorescence intensity (a.u.).
In the case of “GGGACGAGAGGAGCAACGCGCGGGCGCCGGCTGGCAAGAGCGGAGTCACCTAGTGCAG”, the binding signal is reported as 3960 fluorescence intensity (a.u.).
“CCCGGGTCGGGGTCGGGGTCCGGGGTCGGGGTCCCCAACTCGGAGTCACCTAGTGCAG” was tested, and the binding signal was 3860 fluorescence intensity (a.u.).
“GTAATTGAAGATCGGAGTGTTGTATTTGAGCTGGCAAGTTCGGAGTCACCTAGTGCAG” was tested, and the binding signal was 4480 fluorescence intensity (a.u.).
For “GCCACAGAAGATCACGGGCAGCTGACGTGGTGCGCCGTCACGGAGTCACCTAGTGCAG”, the binding signal was 21800 fluorescence intensity (a.u.).
“TTTAGTGACACCCAGCTGATATCGTGATTTGCAAATAGTACGGAGTCACCTAGTGCAG” was tested, and the binding signal was 3510 fluorescence intensity (a.u.).
“CTGATCAGGTGCGGCGCCGCCGCCGTCCCGGACGACGAGCCGGAGTCACCTAGTGCAG” was tested, and the binding signal was 32800 fluorescence intensity (a.u.).
With “TTTCAGAGTGTAATTCTTTGATTGGCAGTATCGTCTCAGACGGAGTCACCTAGTGCAG” the binding signal was 4530 fluorescence intensity (a.u.).
“ACCACTGCACGGCCGCTCACCCACGTCAACGTTTAACCTGCGGAGTCACCTAGTGCAG” was tested, and the binding signal was 10200 fluorescence intensity (a.u.).
For “CAAGATGGCATTGCCACGAATACGTGGCCCATAGAGAATTCGGAGTCACCTAGTGCAG”, the binding signal was 4160 fluorescence intensity (a.u.).
With “ACTAACTTAGCTAGCGTGACAACTGGCACGCTCATTTTCTCGGAGTCACCTAGTGCAG” the binding signal was 3540 fluorescence intensity (a.u.).
For “CTGACTTTTAGCTGCACCAGCATTCATCTTACTGAGCACGCGGAGTCACCTAGTGCAG”, the binding signal was 22600 fluorescence intensity (a.u.).
With “ATGGTAATGTTGAGTTGAAAGGGATTATAAGAAACCATGACGGAGTCACCTAGTGCAG” the binding signal was 19100 fluorescence intensity (a.u.).
In the case of “GCGGAGTAGCATCGCGATGACGCTGCCGCCGCCGTGGGGCCGGAGTCACCTAGTGCAG”, the binding signal is reported as 4830 fluorescence intensity (a.u.).
In the case of “AGAGAGAGAGATTGAGATGCCAAATCATTTCCATGCGGATCGGAGTCACCTAGTGCAG”, the binding signal is reported as 3370 fluorescence intensity (a.u.).
With “CCTCACCGTCCACTCCCAACCGCAAAACCCCACGCGTCAGCGGAGTCACCTAGTGCAG” the binding signal was 5470 fluorescence intensity (a.u.).
“CTCGATCTCGTCTATAAATACCGGGGACGTGCATCCTTCCCGGAGTCACCTAGTGCAG” was tested, and the binding signal was 3280 fluorescence intensity (a.u.).
“CAAAGGGAATATATCAAAGTCTCTTAATAGTTTGGATGACCGGAGTCACCTAGTGCAG” was tested, and the binding signal was 16300 fluorescence intensity (a.u.).
With “CTCGATTTCTCGAACCTTCTTATCTGACGTTGACGCCCCTCGGAGTCACCTAGTGCAG” the binding signal was 5210 fluorescence intensity (a.u.).
With “AGAACACTGTGTCCCTTACGTGGCGACCTAATTTACCGTCCGGAGTCACCTAGTGCAG” the binding signal was 20200 fluorescence intensity (a.u.).
“TGGTTGGAGGATGACGCCGACTTCCCTGAAGCTAGGCGAACGGAGTCACCTAGTGCAG” was tested, and the binding signal was 3980 fluorescence intensity (a.u.).
For “TCTTGCACCTTGCACGATGAAGTCGTCACATCACTTACCGCGGAGTCACCTAGTGCAG”, the binding signal was 3540 fluorescence intensity (a.u.).
With “TGGTCCGGCCGCGCGCCGCTGCCGCCGCCGCCGCAGGGCGCGGAGTCACCTAGTGCAG” the binding signal was 14400 fluorescence intensity (a.u.).
For “TGTTTGCACTTGGTCACTTCCCCTTGCTCACTTCCTTGGGCGGAGTCACCTAGTGCAG”, the binding signal was 3150 fluorescence intensity (a.u.).
For “GAAATTTTCAGGGTGTTACATAGATCAACTGAATTCCTTACGGAGTCACCTAGTGCAG”, the binding signal was 3550 fluorescence intensity (a.u.).
With “CAGCGGGCGGAGGCCATGGCAGCTCGTGGCGTTGGGCGGACGGAGTCACCTAGTGCAG” the binding signal was 3250 fluorescence intensity (a.u.).
In the case of “GCTCACGTTGACCTGCCTTAGGCCACCGTTCTCACCGGCTCGGAGTCACCTAGTGCAG”, the binding signal is reported as 3550 fluorescence intensity (a.u.).
In the case of “TCTTGTGTACGTTGTGTGTTGTCATTGTGTGTCTGTCTTACGGAGTCACCTAGTGCAG”, the binding signal is reported as 5360 fluorescence intensity (a.u.).
“CCACTACTGCCCTTGCTTGACTCGTTTGGTTGGTTGCCTACGGAGTCACCTAGTGCAG” was tested, and the binding signal was 4900 fluorescence intensity (a.u.).
For “CTTTTCTCCACGTCGCTGCAGCCGTGTCCTCATCGACCTTCGGAGTCACCTAGTGCAG”, the binding signal was 5860 ± 632 fluorescence intensity (a.u.).
With “CCCCGGCTTTGACTCACAGACTCCACGTCTCCACCCCGAACGGAGTCACCTAGTGCAG” the binding signal was 8050 fluorescence intensity (a.u.).
“ATTAACGCCACGCCATGCCACATTCATAATAAATTCGTTTCGGAGTCACCTAGTGCAG” was tested, and the binding signal was 4620 fluorescence intensity (a.u.).
With “AAACGCTTACTACCGAACGTCCGATACGTGGAGAAATCCTCGGAGTCACCTAGTGCAG” the binding signal was 3980 fluorescence intensity (a.u.).
“ACGGCCAGTGACCCAGTTGTACATATACCCAGCGCACACTCGGAGTCACCTAGTGCAG” was tested, and the binding signal was 3190 fluorescence intensity (a.u.).
“CCCTCGCTAGCCAAATTTGGCCAGCCTACTCCACGTGCCACGGAGTCACCTAGTGCAG” was tested, and the binding signal was 6070 fluorescence intensity (a.u.).
“CCCAACTATACGTGACACATGTTCCGGTGTTCTCACAAATCGGAGTCACCTAGTGCAG” was tested, and the binding signal was 3250 fluorescence intensity (a.u.).
With “ATGATTCCACTCACGTGTTTGGTTTGTAGGATGTGACAATCGGAGTCACCTAGTGCAG” the binding signal was 3220 fluorescence intensity (a.u.).
With “CGAGGATGCCGAGGTCGACGTCAACATCGTCCGCAGCCACCGGAGTCACCTAGTGCAG” the binding signal was 4340 fluorescence intensity (a.u.).
In the case of “CTGAATGCCGTGCCACCACAGATGGGAGGCTGAGTCGGCGCGGAGTCACCTAGTGCAG”, the binding signal is reported as 4670 fluorescence intensity (a.u.).
